In patent US11207379B2, “Peptides with anti-cancer activity” (IDP DISCOVERY PHARMA, S.L., priority 2016, dated 2021):
“Also recorded” adds a separate entry of the source. At least one compound was matched to its structure with a doubt left. Numbered stars: 1 amine (or outer) side, 2 acyl side, 3 side chain; on linkers, the order of the positions; unused ones are H or OH. Bridge positions count the residues as written; N and C are the ends. Square brackets hold non-standard residues; d marks the D form. Peptide text beside a SMILES is read from it. ξ: configuration not given here. ξαMeNle(6-ylidene) = CC(CCCC=[*:3])(N[*:1])C(=O)[*:2]; X1 = CC(CCCCCCC=[*:3])(N[*:1])C(=O)[*:2]; R8 = C=CCCCCCC[C@@](C)(N)C(=O)O; S5 = C=CCCC[C@](C)(N)C(=O)O

Key:
[1] = system: JB healthy cells (BJ, fibroblast, normal skin); assay: Viability assay (MTT, Alamar Blue, hexosaminidase), 72 h; type: cell-based
Description: BJ, fibroblast (normal skin), ATCC® CRL-2522™
Cell lines A549, MCF-7 and RAMOS were cultured in incubator under CO2 (6%) at 37° C. in DMEM high glucose (Dulbecco's Modified Eagle Solution, Gibco-BRL 31966-21) medium with 10% fetal bovine serum inactivated (FBS) (Gibco-BRL 10106-169). Cell lines HL-60 and MM.1S were cultured in incubator at 37° C. in RPMI-1640 (Sigma R8758) medium with 10% of fetal bovine serum inactivated (FBS) and 2 mM glutamine (Sigma G7513). Cell lines BJ were cultured in incubator under CO2 (6%) at 37° C. in Eagle's Minimum Essential Medium (Sigma, M-2279) with 10% fetal bovine serum inactivated (FBS) (Gibco-BRL 10106-169).
During the amplification step and the assays adherent cells were rinsed with DPBS (Dulbecco's Phosphate Buffered Saline, Sigma D1283) three times and afterward treated for 5 minutes with trypsin ([…]) (Gibco-BRL, 15400054) in solution of DPBS at 37° C., and, once detached, transferred in the culturing medium. […] Cells were counted in a Neubauer chamber after labelling with Tripan-Blue. […]
Cells were incubated during 72 h in incubator under CO2 atmosphere at 37° C. Cell viability was measured by means of MTT (3-(4,5-dimethylthiazol-2-yl)-2.5-diphenyltetrazolium bromide) assay, Alamar Blue® (Biosource DAL1100) and Hexosaminidase activity test, consecutively, following manufacturer instructions. […]

HL-60 cells = assay: Apo-ONE Homogeneous Caspase-3/7 assay; type: cell-based; conditions: HL-60, compound at IC80, best measurement at 8 h
MM.1S cells = assay: Apo-ONE Homogeneous Caspase-3/7 assay; type: cell-based; conditions: compound at IC80, best measurement at 8 h
MM1S cells = assay: Subcutaneous xenograft model, tumor volume and survival; type: in vivo, CB17-SCID immunosuppressed mice; conditions: for Mean survival, Average: from treatment start until tumor diameter 2 cm
Description: CB17-SCID immunosuppressed mice (female) of 6-7 weeks old housed and handled in a pathogen-free zone. They were purchased from Janvier Labs. All experiments were carried out within the facilities of the University of Salamanca.
Groups Studied: • Control: Medium (PBS) i.p. each 12 hours from Monday to Friday. • S03 i.p. each 12 hours from Monday to Friday (in PBS until end point) • S04 15 mg/kg i.p. each 12 hours from Monday to Friday (in PBS until end point) • S09 5 mg/kg i.p. each 12 hours from Monday to Friday (in PBS until end point)
Subcutaneous xenoaraft model: The mice were shaved on the right flank and anesthetized by inhalation to decrease their mobility, were inoculated subcutaneously with 3×10^6 MM1S cells in 50 μl of RPMI-1640 medium and 50 μl of Corning® Matrigel® Basement Membrane Matrix. When the tumors became palpable (at 30 days), the mice were randomized into the different groups (5 mice in the control group and 4 in the remaining groups) according to the tumor volume. This was estimated by measurements with a caliper of the two tumor diameters and using the following formula of a spheroid: V=(a·b^2·π)/6, where a and b correspond to the longest and shortest diameter, respectively. Tumor volume was monitored three times per week.
Survival evaluation: Mice were sacrificed when their tumor diameter reached 2 cm. The time to reach the endpoint criterion was estimated from the day of treatment start. The statistical differences were evaluated using Kaplan-Meier curves with the log rank test. Statistical analyzes were performed using the SPSS-17.0 program.

several tumor cell lines = assay: Anticancer activity in viability assay, stated in words; type: cell-based
Description: A549, MCF-7 and JB cells were seeded at a density of 5000 cells/well and HL-60, MM.1S and Ramos at 10000 cells/well in 100 μl of medium in 96 well plates. After 24 h, the compounds to be tested were added to calculate the dose/response curve at the starting concentration of 100 μM with serial dilutions (1:1). Controls are the untreated cells. Each experiment was performed in triplicate.
Cells were incubated during 72 h in incubator under CO2 atmosphere at 37° C. Cell viability was measured by means of MTT (3-(4,5-dimethylthiazol-2-yl)-2.5-diphenyltetrazolium bromide) assay, Alamar Blue® (Biosource DAL1100) and Hexosaminidase activity test, consecutively, following manufacturer instructions.
Data analysis was performed calculating the percentage of cell viability normalized vs. the values of negative control, which was considered equal to 100%. The dose/response curve was fitted through the sigmoidal equation dose-response (variable slope) and the EC50 values were calculated as follow: Y=Bottom+(Top−Bottom)/(1+10^{[(Log EC50−X)*HillSlope]},

SMILES	EC50 [1] [µM]	apoptosis induction (caspase 3/7 activation) (HL-60 cells)	apoptosis induction (caspase 3/7 activation) (MM.1S cells)	differences in survival with respect to the control (MM1S cells; 15 mg/kg i.p. each 12 h)	Mean survival, Average (MM1S cells; 15 mg/kg i.p. each 12 h) [days]	anticancer activity (active / inactive) (several tumor cell lines)	differences in survival with respect to the control (MM1S cells; 5 mg/kg i.p. each 12 h)	Tumor Volume (MM1S cells; 5 mg/kg i.p. each 12 h, day of treatment 26, in mm³ (unit assumed))	Mean survival, Average (MM1S cells; 5 mg/kg i.p. each 12 h) [days]
CC(C)C[C@@H]1NC(=O)[C@H](C)NC(=O)[C@H](C)NC(=O)[C@H](Cc2ccccc2)NC(=O)[C@](C)(NC(=O)[C@H](CCCNC(=N)N)NC(=O)[C@H](CCCCN)NC(=O)[C@H](CC(C)C)NC(=O)[C@H](CCC(=O)O)NC(=O)[C@H](CC(N)=O)NC(=O)[C@H](CCCNC(=N)N)NC(=O)[C@H](CCCNC(=N)N)NC(=O)[C@H](CCC(N)=O)NC(=O)[C@@H](N)CCCNC(=N)N)CCCCCC/C=C\CCC[C@@](C)(C(N)=O)NC(=O)[C@H](CC(=O)O)NC(=O)[C@H](CCCNC(=N)N)NC1=O [IDP-S04, RQRRNELKRXFAALRDX-H2] (H-RQRRNELKR[R8]FAALRD[S5]-NH2; staple (Z) 10-17; N-terminus assumed)	> 100	induces apoptosis	induces apoptosis	5.5	36.5	surprisingly active	–	–	–
CC[C@H](C)[C@H](NC(=O)[C@H](Cc1ccc(O)cc1)NC(=O)[C@H](C)NC(=O)C1(C)CCCC=CCCCCCCC(C)(NC(=O)[C@H](CCCCN)NC(=O)[C@@H]2CCCN2C(=O)[C@H](C)N)C(=O)N[C@@H](C(C)C)C(=O)N[C@@H]([C@@H](C)CC)C(=O)N[C@@H](CC(C)C)C(=O)N[C@@H](CCCCN)C(=O)N[C@@H](CCCCN)C(=O)N[C@@H](C)C(=O)N1)C(=O)N[C@@H](CC(C)C)C(=O)N[C@@H](CO)C(=O)O (some centres unmarked) [IDP-S09, APKXVILKKAXAYILS-OH] (H-APK[X1]VILKKA[ξαMeNle(6-ylidene)]AYILS-OH; staple 4-11; N-terminus assumed)	–	–	significant effect	–	–	–	10.5	1010.5	41.5
CC(C)C[C@@H]1NC(=O)[C@H](C)NC(=O)[C@H](Cc2ccccc2)NC(=O)[C@H](Cc2ccccc2)NC(=O)[C@](C)(NC(=O)[C@H](CCCNC(=N)N)NC(=O)[C@H](CCCCN)NC(=O)[C@H](CC(C)C)NC(=O)[C@H](CCC(=O)O)NC(=O)[C@@H](N)CC(N)=O)CCCCCC/C=C\CCC[C@@](C)(C(N)=O)NC(=O)[C@H](CC(=O)O)NC(=O)[C@H](CCCNC(=N)N)NC1=O [IDP-S13, NELKRXFFALRDX-NH2] (H-NELKR[R8]FFALRD[S5]-NH2; staple (Z) 6-13; N-terminus assumed)	–	–	–	–	–	no activity was detected; also recorded: inactive	–	–	–
